Screen size: about 360,000 compounds; about 7,500 (2.1%) were called active. Inconclusive means that the source gave no clear call. Such entries were picked first, then a sample of the others. Calls follow the shape of the dose curve; as a rule, active = well fitted inhibition curve with a large enough effect; inconclusive = small, poorly fitted or top-dose-only effect, or effect the other way; inactive = flat fitted curve, though single readings scatter. Potencies of inconclusive entries are doubtful fits and often do not repeat.
assay: Nrf2 qHTS screen for inhibitors; details: A549 ARE-Fluc reporter, luciferase luminescence, 18-24 h; activity change, negative = inhibition: at 46 µM (top of the series); also: nearly all actives have a fitted effect of over 60% in size
In short: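 Reporter: ARE-Fluc in A549. Exposure: 18-24 h, 37 °C, 5% CO2, 5% FBS OPTI-MEM. Readouts: fluorescent cytotoxicity (CellTiter-Fluor), then luminescent Nrf2 signal after BugLite.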
% is scaled to controls: 0 for no effect and ±100 for the full control effect; potency is read from the fitted curve at half-maximal effect.

Structure (SMILES)	Potency	activity change, negative = inhibition
COc1ncccc1-c1nnn(-c2ccc(C)cc2)n1	inconclusive: 18.4 µM [activator, partial curve]	–
COc1c(Cl)cc(Cl)cc1/C=C/C(=O)c1ccc(NC(=O)c2cccs2)cc1	inconclusive: 29.1 µM [falling, single point]	–
Cc1ccc(C)c(NC(=O)CN(C)C(=O)C2COc3ccccc3O2)c1 (stereo unspecified)	inconclusive: 11.6 µM [activator, partial curve, poor fit]	–
O=C(Nc1ccc2c(c1)OCCO2)c1ccc(Br)s1	inconclusive: 0.731 µM [activator, full curve, poor fit]	–
N#Cc1nc(Nc2cc(F)cc(Cl)c2)nc(NC2CCCC2)n1	inconclusive: 29.1 µM [falling, single point]	–
Cc1cc(C)cc(Nc2cc(C(=O)NCCCN(C)C3CCCCC3)c3ccccc3n2)c1	inconclusive: 29.1 µM [falling, single point]	–
COCCn1c(C)cc(C(=O)CN2C(=O)NC3(CCCCCCC3)C2=O)c1C	inconclusive: 3.66 µM [activator, partial curve, poor fit]	–
Cc1nc(-c2ccc(C(=O)N3CCCC3)cc2)cs1	inconclusive: 20.6 µM [activator, partial curve]	–
Cc1cccc(C)c1NC(=O)c1ccc([N+](=O)[O-])s1	inactive	–
Cc1ccc(NC(=O)CSc2ccc(-c3cccnc3)nn2)cc1	inconclusive: 25.9 µM [falling, partial curve]	–
O=C(/C=C/c1ccco1)Nc1nc(-c2ccccn2)cs1	inconclusive: 23.1 µM [activator, partial curve, poor fit]	–
COc1cc(-c2noc(CCC(=O)NC3CCCCC3)n2)cc(OC)c1OC	inconclusive: 1.3 µM [activator, full curve, poor fit]	–
COc1ccc(-c2cnc(OC(C)(C)C)nc2OC(C)(C)C)cc1OC	active: 23.1 µM	–
COc1ccc(C(=O)Nc2ccc(CN3CCOCC3)cc2)cc1	inconclusive: 2.31 µM [activator, partial curve, poor fit]	–
COCCCNC(=O)c1sc2nc(C)c(C(=O)Nc3ccc(C)cc3C)c(-c3ccccc3Cl)c2c1N	–	inactive: -1.7% [at 9.27 µM]
C=CCn1c(SCC(=O)N(CCO)CCO)nc2sc3c(c2c1=O)CCC3	inconclusive: 16.4 µM [falling, single point]	–
CC(=O)c1ccc(NC(=O)CCOc2cc(C)ccc2C)cc1	inconclusive: 18.4 µM [activator, partial curve]	–
CCOc1ccccc1-c1nnc2n1N=C(c1ccc(OC)c(OC)c1)CS2	inconclusive: 1.03 µM [activator, partial curve]	–
O=C(Cn1nc(-c2ccc(Cl)cc2)c2ccccc2c1=O)Nc1cccc(C(F)(F)F)c1	inconclusive: 29.1 µM [falling, partial curve, poor fit]	–
O=C(NC1CCN(Cc2ccc(Cl)c(Cl)c2)CC1)c1ccccc1	inconclusive: 18.4 µM [falling, single point]	–
CCCCCCCCC(=O)N/N=C(\C)c1ccc(O)cc1O	inconclusive: 29.1 µM [activator, single point]	–

Structure (SMILES)	Potency	activity change, negative = inhibition
Cc1ccccc1Nc1nc(N)nc(COC(=O)c2c(C)noc2C)n1	inconclusive: 23.1 µM [falling, partial curve, poor fit]	–
O=C(OCC(=O)N1CCOCC1)c1cc2ccccc2oc1=O	inactive	–
COc1ccc(-c2csc(NC(=O)CSCc3c(C)noc3C)n2)cc1OC	active: 23.1 µM	–
CCOC(=O)c1cc2c(=O)n3ccccc3nc2n(CCCOC)c1=NC(=O)C(C)(C)C	inactive	–
Cc1c(O)ccc2c(CC(=O)N[C@@H](Cc3ccc(O)cc3)C(=O)O)cc(=O)oc12	inconclusive: 29.1 µM [activator, single point]	–
CC(C)(C)c1ccc(-n2ncc3c2CCCC3NC(=O)CCN2CCCCC2=O)cc1 (stereo unspecified)	inconclusive: 23.1 µM [falling, partial curve, poor fit]	–
CCOc1ccc(N(C)S(=O)(=O)c2ccc(C)c(C(=O)N3CCN(Cc4ccc5c(c4)OCO5)CC3)c2)cc1	inconclusive: 29.1 µM [falling, single point]	–
COC(=O)c1cccc(NC(=O)c2cccc(OC)c2)c1	inconclusive: 14.6 µM [activator, partial curve, poor fit]	–
Cc1ccc(C(=O)NC(=S)NNC(=O)c2ccc([N+](=O)[O-])cc2)cc1	inconclusive: 29.1 µM [falling, single point]	–
CC(Oc1ccc(Cl)cc1)c1ccn[nH]1 (stereo unspecified)	inconclusive: 4.11 µM [activator, full curve, poor fit]	–
CC(=O)c1cccc(NC(=S)N2CCN(CCN3C(=O)c4cccc5cccc(c45)C3=O)CC2)c1	inconclusive: 6.51 µM [activator, single point]	–
CC1CCN(S(=O)(=O)c2ccc3nc(NCc4ccccc4)ccc3c2)CC1	active: 16.4 µM	–
O=C(/C=C/c1ccccc1Cl)NNC(=O)c1ccncc1	inconclusive: 23.1 µM [activator, partial curve, poor fit]	–
COc1ccc(OC)c(C(=O)CSc2ncc3c(n2)-c2ccccc2N(Cc2ccccc2C)S3(=O)=O)c1	inconclusive: 16.4 µM [activator, single point]	–
Cc1ccc(N(C(=O)Cc2c[nH]c3ccccc23)C(C(=O)NC2CCCCC2)c2ccco2)cc1 (stereo unspecified)	active: 18.4 µM	–
Cc1cc(NC(=S)N(Cc2cccc(Br)c2)CC2CCC(C(=O)O)CC2)ccc1Cl (stereo unspecified)	inactive	–
CCCCSc1nnc(CSc2nc3nc(C)cc(C)n3n2)o1	inconclusive: 29.1 µM [falling, single point]	–
CCOC(=O)c1c(C)[nH]c(C2=NNC(=Nc3ccccc3)SC2)c1C	inconclusive: 16.4 µM [falling, single point]	–
O=C(CC1C(=O)NCCN1C/C=C/c1ccccc1)NCCc1cnccn1 (stereo unspecified)	inactive	–
Cc1cc2c(cc1NC(=O)c1ccccc1Cl)n(C)c(=O)c(=O)n2C	inconclusive: 29.1 µM [activator, single point]	–

Arranged by heavy-atom count (largest number first): three of the compounds above
Structure (SMILES)	Potency	activity change, negative = inhibition
COc1ccc(OC)c(C(=O)CSc2ncc3c(n2)-c2ccccc2N(Cc2ccccc2C)S3(=O)=O)c1	inconclusive: 16.4 µM [activator, single point]	–
CC(C)(C)c1ccc(-n2ncc3c2CCCC3NC(=O)CCN2CCCCC2=O)cc1 (stereo unspecified)	inconclusive: 23.1 µM [falling, partial curve, poor fit]	–
COC(=O)c1cccc(NC(=O)c2cccc(OC)c2)c1	inconclusive: 14.6 µM [activator, partial curve, poor fit]	–
